Data on 41 molecules can be found in PubChem BioAssay AID901 (National Center for Advancing Translational Sciences (NCATS), 2007).

This is one part of the list. The main result of the screen is listed elsewhere. These columns were measured beside it and carry no call. The list favours compounds with an active or inconclusive main result. Words in brackets tell the shape of the fitted curve; partial curves, single points and poor fits give uncertain potencies.

The test is described as follows: qHTS Assay for Identifying the Cell-Membrane Permeable IMPase Inhibitors. The settings on record: CHO-M1 cells, IP1 accumulation, HTRF TR-FRET ratio; measured here: donor channel 620 nm AC50. (qHTS replaces the single test concentration by a dilution series.)
For `CCOC(=O)N1CCC(NC(=O)c2sc3nc4n(c(=O)c3c2C)CCCC4)CC1`, the AC50 is 31.6 µM [rising, single point].
The figure for `CCn1c(CNC(=O)COc2ccc(C(C)C)cc2)nnc1SCC(=O)NC1CCCCC1C` (stereo unspecified) is 6.31 µM [falling, single point]; for `CNC(=O)c1cc2cc(OC)ccc2n1CCN(C)C` it is 0.158 µM [rising, full curve]; for `O=C(c1ccc(Br)o1)N1CCN(C/C=C/c2ccccc2)CC1` it is 1 µM [falling, full curve, poor fit].
As to `COc1ccc(OC)c(NC(=O)N[C@@H](Cc2ccccc2)C(=O)O)c1`, the AC50 is 0.02 µM [falling, full curve, poor fit].
`CCOC(=O)c1c(N=CN(C)C)c(C#N)c2n1CCCC2`: the AC50 was 0.0251 µM [falling, full curve, poor fit].
As to `CCOc1ccc2[nH]c(S(=O)(=O)CC)nc2c1Cl`, the AC50 was 0.447 µM [falling, full curve].
Consider `O=C(Nc1ccc(Cl)c(-c2nc3cc(Cl)ccc3o2)c1)c1cc2ccccc2o1`, for which the AC50 is 5.62 µM [falling, single point].
As to `COc1ccc(CCNc2oc(COc3ccccc3F)nc2C#N)cc1OC`, the half-maximal activity concentration (AC50) is 3.98 µM [rising, partial curve, poor fit].
With `CCCc1ccc(C(=O)NNC(=O)c2ccc(Cl)cc2)cc1`, the AC50 was 10 µM [falling, partial curve, poor fit].
In the case of `COc1cccc(OC)c1C(=O)Nc1ccc(S(=O)(=O)Nc2nccc(C)n2)cc1`, the AC50 is 0.316 µM [falling, full curve].
`CCN(CC)CCN1C(=O)C2C3c4ccccc4C(c4ccccc43)C2C1=O` (stereo unspecified): the AC50 was 3.16 µM [falling, single point].
As to `COC(=O)c1ccc(SCC(=O)NC2CCCCC2)c([N+](=O)[O-])c1`, the AC50 was 25.1 µM [rising, single point].
In the case of `CCN(CCCNC(=O)c1ccc(N2CCCC2=O)cc1)c1cccc(C)c1`, the AC50 is 0.0158 µM [rising, full curve, poor fit].
For `Cc1cccc(-c2nc3c(c(SCC(N)=O)n2)CCCC3)c1`, the AC50 is 0.251 µM [rising, partial curve].
The figure for `CCCCSc1cnn(-c2ccccc2)c(=O)c1SCCCC` is 20 µM [rising, single point].
Turning to `COc1ccc(-c2nnc(SCC(=O)c3[nH]c(C)c(C(C)=O)c3C)o2)cc1`, the AC50 is 0.631 µM [falling, partial curve, poor fit].
In the case of `O=c1c(O)c(-c2ccc(O)c(O)c2)oc2c(OC[C@@H]3O[C@@H](O)[C@@H](O)[C@H](O)[C@H]3O)c(O)cc(O)c12`, the AC50 was 15.8 µM [falling, partial curve, poor fit].
In the case of `COc1ccc(N2CCN(CCCNC(=O)CN3CCN(Cc4ccccc4C)C3=O)CC2)cc1`, the AC50 was 5.01 µM [falling, single point].
Turning to `CC(=O)c1ccc(NC(=S)N2C(C)CCCC2C)cc1` (stereo unspecified), the AC50 is 2.51 µM [rising, single point].
The figure for `NC(=O)COC(=O)c1ccc(Oc2ccccc2)cc1` is 6.31 µM [falling, single point].
As for `CCOC(=O)C(CCCOc1ccccc1)C(=O)OCC`, the AC50 is 31.6 µM [falling, single point].
Consider `CCCS(=O)(=O)c1c(S(=O)(=O)CCC)c2c(N)cccn2c1C(=O)c1ccc(F)cc1`, for which the AC50 is 0.0316 µM [falling, full curve, poor fit].
As to `COc1cc(NS(=O)(=O)c2ccccc2)ccc1-n1nc(C)cc1C`, the AC50 was 3.16 µM [falling, partial curve].
In the case of `CCOC(=O)c1cnc(SCC(=O)Nc2nc(C)c(C)s2)nc1N`, the AC50 is 0.0398 µM [falling, full curve, poor fit].
Regarding `CC(C)CN1C(=O)NC(NC(=O)c2cccnc2)(C(F)(F)F)C1=O` (stereo unspecified), the AC50 was 31.6 µM [falling, single point].
Regarding `COc1ccc(C(C(=O)NC2CCCC2)N(C(=O)c2ccoc2C)c2ccc(C)cc2)cc1` (stereo unspecified), the half-maximal activity concentration (AC50) was 0.0126 µM [falling, full curve, poor fit].
As to `Cc1cc(C)c(N=Cc2c(O)n(-c3nccs3)c(=O)c3ccccc23)c(C)c1`, the AC50 is 5.01 µM [rising, single point].
In the case of `CC(=O)N1CCc2cc(S(=O)(=O)CCC(=O)N3CCN(c4ccccn4)CC3)ccc21`, the AC50 is 0.631 µM [falling, full curve].
The figure for `CCOC(=O)N1CCN(C(=O)N2CCOCC2)CC1` is 0.00447 µM [falling, full curve, poor fit].
The figure for `Cc1cc(Nc2ccc3c(c2)OCCO3)n2ncnc2n1` is 0.126 µM [falling, full curve, poor fit]; for `Cc1ccc(N(CC(=O)NCCSCc2ccco2)S(=O)(=O)c2ccc(C)cc2)cc1` it is 0.158 µM [rising, full curve, poor fit].
For the molecule `CCOc1ccc(NC(=O)CSCC(=O)O)cc1`, the AC50 was 0.2 µM [falling, full curve, poor fit].
In the case of `O=C(CSc1nnc(-c2ccc3c(c2)OCO3)n1-c1ccccc1)c1ccccc1`, the AC50 is 35.5 µM [rising, single point].
Take `CCCCNC(=O)Nc1ccccc1C(=O)NCCC`: the AC50 is 20 µM [rising, single point].
As for `CCn1nnnc1SCC(=O)N(C1CCCCC1)C1CCCCC1`, the AC50 was 10 µM [falling, partial curve, poor fit].
On to `CCOC(=O)c1cccc(NC(=O)Nc2c(C)n(C)n(-c3ccccc3)c2=O)c1`, for which the AC50 is 1.26 µM [rising, partial curve, poor fit].
As for `Cc1cc(C)nc(NC(=O)CSc2ccccn2)n1`, the AC50 was 0.316 µM [falling, partial curve].
With `O=S(=O)(c1cccc(-c2nc3n(n2)Cc2ccccc2-3)c1)N1CCCCC1`, the AC50 was 31.6 µM [rising, single point].
On to `COc1ccc(N2CCN(CC(=O)NC(=O)NCc3ccco3)CC2)cc1`, for which the AC50 was 4.47 µM [rising, single point].
Regarding `O=C(CCCn1c(=O)[nH]c2cc(Cl)ccc2c1=O)N1CCN(c2ccc([N+](=O)[O-])cc2)CC1`, the AC50 was 5.01 µM [falling, full curve].

The AC50 is the concentration giving half of the maximal activity seen.
